Our source for the binding values is PMC12221414.

The assay deals with T1, Snapin (mouse (endogenous in HEI-OC1)) (UniProt Q9Z266).
T1 sequence: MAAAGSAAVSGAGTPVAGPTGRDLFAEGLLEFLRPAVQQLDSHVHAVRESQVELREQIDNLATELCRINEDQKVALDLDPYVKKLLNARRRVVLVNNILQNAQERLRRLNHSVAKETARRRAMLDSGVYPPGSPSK
The assay can be described thus: co-IP; HEI-OC1 cells (Cisd2 knockdown, as the methods say) lysed in RIPA buffer; 4 ug SNAPIN antibody 2-3 hr at 4°C, protein A/G 1 hr; washed in RIPA and PBS; Western blot with SNAPIN and CISD2 antibodies. On the technique in general: A western blot detects proteins with antibodies after separation by electrophoresis.

Results are given in words; binding and its absence hold for the method and conditions named. In cells and extracts the contact can be indirect. Some entries that bind do so weakly or less than the wild type.

B1: Cisd2 (protein, UniProt Q9CQB5 1-135)
chain: MVLDSVARIVKVQLPAYLKQLPVPDSITGFARLTVSDWLRLLPFLGVLALLGYLAVRPFFPKKKQQKDSLINLKIQKENPKVVNEINIEDLCLTKAAYCRCWRSKTFPACDGSHNKHNELTGDNVGPLILKKKEV
For the molecule B1, the binding entry is listed as “binds”.
